SMILES strings stand for the structures. The list shows a part of the results. Single values are uncertain, as repeats are few or missing.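 Cells were imaged in 1,536-well plates, and nuclei stained with an antibody against cleaved PARP were counted against all DNA-stained nuclei to give the apoptosis fraction. Screening doses were chosen to leave most cells alive, and resting and induced cleaved-PARP levels differ strongly between cell lines.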

In the assay the test system is WM1745. The assay is described as follows: cleaved PARP positive nuclei fraction relative to DMSO control; melanoma cells; higher = more apoptosis. The conditions noted are these: library dose: low library concentration; 72 h.
For `C=C(c1ccc(C(=O)O)cc1)c1cc2c(cc1C)C(C)(C)CCC2(C)C` [Bexarotene] + Cc1ccc(NC(=O)c2cccc(N(C)C)c2)cc1NC(=O)c1ccc(O)cc1 [ZM336372] (first compound 2 µM, partner dose 2 µM), the “cleaved PARP positive nuclei fraction” value was 103%.
Take `Nc1nc(F)nc2c1ncn2[C@@H]1O[C@H](CO)[C@@H](O)[C@@H]1O` [fludarabine] + C=CCn1c(=O)c2cnc(Nc3ccc(N4CCN(C)CC4)cc3)nc2n1-c1cccc(C(C)(C)O)n1 [MK1775] (first compound 0.2 µM, partner dose 0.02 µM): the “cleaved PARP positive nuclei fraction” value was determined as 105%.
For `Cc1cc(Nc2cc(N3CCN(C)CC3)nc(/C=C/c3ccccc3)n2)n[nH]1` + Cn1cc(/C=C2\C(=O)Nc3cccnc32)c2ccccc21 [GW441756] (first compound 0.04 µM, partner dose 0.4 µM), the “cleaved PARP positive nuclei fraction” value stood at 103%.
As for `CC(C)C[C@H](NC(=O)[C@H](Cc1ccccc1)NC(=O)c1cnccn1)B(O)O` [Bortezomib] + c1cc(-c2cnn3cc(-c4ccc(OCCN5CCCCC5)cc4)cnc23)ccn1 [Dorsomorphin] (first compound 0.001 µM, partner dose 0.4 µM), the figure is 148%; as for `Nc1ncn([C@H]2C[C@H](O)[C@@H](CO)O2)c(=O)n1` [decitabine] + Cc1cc([N+](=O)[O-])ccc1NS(=O)(=O)c1cc(Cl)ccc1Cl [FH535] (first compound 0.1 µM, partner dose 1 µM), 92.3%; as for `Nc1ncn([C@H]2C[C@H](O)[C@@H](CO)O2)c(=O)n1` [decitabine] + O=C(Nc1cccc(Cl)c1)Nc1ncc(CCNc2ncnc3ccsc23)s1 [SNS314] (first compound 0.1 µM, partner dose 0.0008 µM), 113%.
In the case of `CS(=O)(=O)CCNCc1ccc(-c2ccc3ncnc(Nc4ccc(OCc5cccc(F)c5)c(Cl)c4)c3c2)o1` [lapatinib] + COc1ccc2c(c1)CCC1C2CCC2(C)C(NCCCCCCN3C(=O)C=CC3=O)CCC12 [U73122] (first compound 0.8 µM, partner dose 0.4 µM), the “cleaved PARP positive nuclei fraction” value is 82.5%.
The same measure for `Cc1cc(Nc2cc(N3CCN(C)CC3)nc(/C=C/c3ccccc3)n2)n[nH]1` + CCCCCCCCCCCC1=C(O)C(=O)C=C(O)C1=O [Embelin] (first compound 0.04 µM, partner dose 1.2 µM): 106%; for `C[C@@H](Oc1cc(-c2cnn(C3CCNCC3)c2)cnc1N)c1c(Cl)ccc(F)c1Cl` [Crizotinib] + Cc1cc([N+](=O)[O-])ccc1NS(=O)(=O)c1cc(Cl)ccc1Cl [FH535] (first compound 0.2 µM, partner dose 1 µM): 93.2%.
The same measure for `Nc1ccn([C@@H]2O[C@H](CO)[C@@H](O)C2(F)F)c(=O)n1` [gemcitabine] + O=C(Nc1cccc(Cl)c1)Nc1ncc(CCNc2ncnc3ccsc23)s1 [SNS314] (first compound 0.0004 µM, partner dose 0.0008 µM): 170%.
As for `O=C(O)[C@@H]1[O][Sb](=[O])([O][Sb]2(=[O])[O][C@H]([C@H](O)CO)[C@H](O)[C@H](C(=O)O)[O]2)[O][C@H]([C@H](O)CO)[C@@H]1O` (some centres undefined) [stibogluconate] + CC(C)CCN1c2nc(Nc3cc(F)c(O)c(F)c3)ncc2N(C)C(=O)C1C [BID1870] (first compound 2 µM, partner dose 0.2 µM), the figure is 77.5%.
On to `C=C(c1ccc(C(=O)O)cc1)c1cc2c(cc1C)C(C)(C)CCC2(C)C` [Bexarotene] + COc1ccc2c(c1)CCC1C2CCC2(C)C(NCCCCCCN3C(=O)C=CC3=O)CCC12 [U73122] (first compound 2 µM, partner dose 0.4 µM), for which the “cleaved PARP positive nuclei fraction” value came to 83.8%.
On to `C=C(c1ccc(C(=O)O)cc1)c1cc2c(cc1C)C(C)(C)CCC2(C)C` [Bexarotene] + Oc1nc(-c2ccc(C(F)(F)F)cc2)nc2c1CSCC2 [XAV939] (first compound 2 µM, partner dose 2 µM), for which the “cleaved PARP positive nuclei fraction” value turned out to be 105%.
For the compound `CS(=O)(=O)CCNCc1ccc(-c2ccc3ncnc(Nc4ccc(OCc5cccc(F)c5)c(Cl)c4)c3c2)o1` [lapatinib] + NC(=O)Nc1cc(-c2cccc(F)c2)sc1C(=O)N[C@H]1CCCNC1 [AZD7762] (first compound 0.8 µM, partner dose 0.02 µM), the “cleaved PARP positive nuclei fraction” value stood at 108%.

These data come from the supplement of paper PMC4604168 (melanoma cell lines).
